For part of these data: A weaker result is weaker than the reference pair of the same experiment. For part of these data: At least one result comes from cells or an extract, where the contact may be indirect. For part of these data: For at least one entry, the source does not settle the construct or the ends of the probe. For part of these data: Negatives hold for the conditions tested.
Columns and labels:
Glypican-3 (GPC3) [1] = target: Glypican-3 (GPC3) (UniProt P51654); assay: filter binding; settings: n = BzdU, S = gemcitabine [BzdU (T) at 7,11,15,16,20,21,23,25,29,30,34,37, purified recombinant protein, single-stranded DNA, letters built from the parent sequence and the stated change, variant of 2428-12-10 (12-10)
[2] = system: Glypican-3 (GPC3) on hepatoma cells (HepG2, Hep3B, Huh-7); assay: flow cytometry; settings: n = BzdU, protein on the cell surface, single-stranded DNA
[3] = system: Glypican-3 (GPC3) on hepatoma cells (HepG2, Hep3B, Huh-7); assay: activity in cells; settings: n = BzdU, single-stranded DNA, variant of 12-12, dose not given here
Glypican-3 (GPC3) [4] = target: Glypican-3 (GPC3) (UniProt P51654); assay: MST; settings: n = BzdU, S = gemcitabine, 2'-F, 2'-OMe, 2'-OMe: 1,3,28,34, 3' idT left out], purified recombinant protein, label: 5' Cy5, single-stranded DNA, letters built from the parent sequence and the stated change, variant of Combi 4
[5] = system: A431 cells (low GPC3 expression); assay: activity in cells; settings: n = BzdU, 2'-F, no internalization in A431, protein on the cell surface, single-stranded DNA, variant of 12-12, dose not given here

Chains of the proteins cited; added tags and fusions are not shown. Residues count along the entry.
UniProt P51654, 25-554: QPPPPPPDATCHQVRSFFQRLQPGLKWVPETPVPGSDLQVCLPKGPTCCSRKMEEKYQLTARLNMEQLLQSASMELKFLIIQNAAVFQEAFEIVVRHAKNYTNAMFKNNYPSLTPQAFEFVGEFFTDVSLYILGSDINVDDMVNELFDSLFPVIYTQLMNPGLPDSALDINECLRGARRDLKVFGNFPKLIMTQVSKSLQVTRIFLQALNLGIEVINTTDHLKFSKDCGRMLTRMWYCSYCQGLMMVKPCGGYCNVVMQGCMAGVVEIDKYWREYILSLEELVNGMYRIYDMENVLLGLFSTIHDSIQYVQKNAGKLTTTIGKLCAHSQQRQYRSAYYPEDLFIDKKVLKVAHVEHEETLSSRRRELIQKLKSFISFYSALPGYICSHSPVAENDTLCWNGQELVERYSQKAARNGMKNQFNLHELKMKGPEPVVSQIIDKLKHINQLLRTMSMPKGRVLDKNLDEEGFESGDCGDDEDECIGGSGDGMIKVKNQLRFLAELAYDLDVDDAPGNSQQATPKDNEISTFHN

CCGAAGTGAATGCGTTGAATTATGTCCCTTCAGTCATCAC [12-10 G(2)5']
binding result (Glypican-3 (GPC3) [1]; gemcitabine (C) at 1,2], gemcitabine at 5' end affects binding): binds more weakly

GGGAAGTGAATGCGTTGAATTATGTCCCTTCAGTCATCAC [12-10 G(2)P]
binding result (Glypican-3 (GPC3) [1]; gemcitabine (C) at 35,38], gemcitabine at pair affects binding): binds more weakly

GTGAATGCCTTGAATTATCTCCCTTCAGTCATCAC [12-12 G(7)]
binding result ([2]; S = gemcitabine, 3' idT [BzdU (T): 2,6,10,11,15,16,18,20,24,25,29,32, gemcitabine (C): 8,9,19,21,22,23,35 (9 and 19 replace parent G), 3' idT left out], cell binding decreases with gemcitabine number, label: 5' Cy5, letters built from the parent sequence and the stated change, variant of 12-12): binds more weakly

GTGAATGCGTTGAATTATGTCCCTTCAGTCATCAC [12-12 G(3)]
binding result ([2]; S = gemcitabine, 3' idT [BzdU (T) at 2,6,10,11,15,16,18,20,24,25,29,32, gemcitabine (C) at 21,22,23, 3' idT left out (after 35)], best cell binding among gemcitabine-bound 12-12, label: 5' Cy5, letters built from the parent sequence and the stated change, variant of 12-12): binds
functional effect of the aptamer ([3]; S = gemcitabine, 3' idT [BzdU (T) at 2,6,10,11,15,16,18,20,24,25,29,32, gemcitabine (C) at 21,22,23, 3' idT left out (after 35)], HepG2 killing by gemcitabine aptamer, none on A431, protein on the cell surface, letters built from the parent sequence and the stated change): active

GTGAATGCGTTGAATTATGTCCCTTCAGTCATCAC [12-12 G(5)]
binding result ([2]; S = gemcitabine, 3' idT [BzdU (T): 2,6,10,11,15,16,18,20,24,25,29,32, gemcitabine (C): 8,21,22,23,35, 3' idT left out], cell binding decreases with gemcitabine number, label: 5' Cy5, letters built from the parent sequence and the stated change, variant of 12-12): binds more weakly

GTGAATGCGTTGAATTATGTCCCTTCAGTCATCAC [12-12]
binding result ([2]; 3' idT, Huh-7 cells, 25 nM aptamer, KRPH buffer, 4 C, best of 12-10 truncations, label: 5' Cy5 (cell assays), variant of 2428-12-10 (12-10)): binds

GTGAATGCGTTGAATTATGTCCCTTCAGTCATCAC [Combi 4 G(3)]
binding result ([2]; S = gemcitabine, 2'-F, 2'-OMe, Y = Nap-dU as printed GMenGMeAFAFnGCGnnGFAFAFnnAFnGYSSSnnCAGMnCAnCFAMCF, 3' idT [BzdU (T): 2,6,10,11,15,16,18,24,25,29,32, Nap-dU (T): 20, gemcitabine (C): 21,22,23, 2'-OMe: 1,3,28,34, 2'-F: 4,5,12,13,14,17,33,35, 3' idT left out], better cell binding than G(5), label: 5' Cy5, letters built from the parent sequence and the stated change, variant of Combi 4): binds
binding result (Glypican-3 (GPC3) [4]; Y = Nap-dU as printed GMenGMeAFAFnGCGnnGFAFAFnnAFnGYSSSnnCAGMnCAnCFAMCF, 3' idT [BzdU (T): 2,6,10,11,15,16,18,24,25,29,32, Nap-dU (T): 20, gemcitabine (C): 21,22,23, 2'-F: 4,5,12,13,14,17,33,35, Kd similar to 12-12, SB18T0.05): binds

GTGAATGCGTTGAATTATGTCCCTTCAGTCATCAC [Combi 4 G(5)]
binding result ([2]; S = gemcitabine, 2'-F, 2'-OMe, Y = Nap-dU as printed GMenGMeAFAFnGCGnnGFAFAFnnAFnGYSSSnnCAGMenCAnSAMeS, 3' idT [BzdU (n=T): 2,6,10,11,15,16,18,24,25,29,32, Nap-dU (Y=T): 20, gemcitabine (S=C): 21,22,23,33,35, 2'-OMe: 1,3,28,34, 2'-F: 4,5,12,13,14,17, 3' idT left out], label: 5' Cy5, letters built from the parent sequence and the stated change, variant of Combi 4): binds more weakly
binding result (Glypican-3 (GPC3) [4]; Y = Nap-dU as printed GMenGMeAFAFnGCGnnGFAFAFnnAFnGYSSSnnCAGMenCAnSAMeS, 3' idT [BzdU (n=T): 2,6,10,11,15,16,18,24,25,29,32, Nap-dU (Y=T): 20, gemcitabine (S=C): 21,22,23,33,35, 2'-F: 4,5,12,13,14,17, low binding with five gemcitabines): binds more weakly

GTGAATGCGTTGAATTATGTCCCTTCAGTCATCAC [Combi 4]
functional effect of the aptamer ([3]; 2'-F, 2'-OMe, Y = Nap-dU as printed GMenGMeAFAFnGCGnnGFAFAFnnAFnGYCFCFCFnnCAGMenCAnCAMCF, 3' idT [BzdU (T): 2,6,10,11,15,16,18,24,25,29,32, Nap-dU (T): 20, 2'-OMe: 1,3,28,34, 2'-F: 4,5,12,13,14,17,21,22,23,35, 3' idT left out], excellent Hep3B internalization, protein on the cell surface, letters built from the parent sequence and the stated change): active

GTGAATGCGTTGAATTATGTCCCTTCAGTCATCAC [Combi 6]
functional effect of the aptamer ([3]; 2'-F, 2'-OMe, Y = Nap-dU as printed GMenGMeAFAFnGCGnnGFAFAMennAMenGYCFCFCFnnCAGMenCAnCFAMeCF, 3' idT [BzdU (T): 2,6,10,11,15,16,18,24,25,29,32, Nap-dU (T): 20, 2'-OMe: 1,3,14,17,28,34, 2'-F: 4,5,12,13,21,22,23,33,35, 3' idT left out], internalization in HepG2 and Hep3B, protein on the cell surface, letters built from the parent sequence and the stated change): active
functional effect of the aptamer ([5]; 2'-OMe, Y = Nap-dU as printed GMenGMeAFAFnGCGnnGFAFAMennAMenGYCFCFCFnnCAGMenCAnCFAMeCF, 3' idT [BzdU (T): 2,6,10,11,15,16,18,24,25,29,32, Nap-dU (T): 20, 2'-OMe: 1,3,14,17,28,34, 2'-F: 4,5,12,13,21,22,23,33,35, 3' idT left out], letters built from the parent sequence and the stated change): not active

GTGAATGCGTTGAATTATGTCCCTTCAGTCATCAC [Combi 7]
functional effect of the aptamer ([3]; 2'-F, 2'-OMe as printed GMenGMeAFAmnGCGnnGFAFAMennAMenGnCCFCFnnCAGMenCAnCAMeCF, 3' idT, internalization in HepG2 and Hep3B, protein on the cell surface): active
functional effect of the aptamer ([5]; 2'-OMe as printed GMenGMeAFAmnGCGnnGFAFAMennAMenGnCCFCFnnCAGMenCAnCAMeCF, 3' idT): not active

GTGAATGCGTTGAATTATGTCCCTTCAGTCATCAC [Combi 10]
functional effect of the aptamer ([3]; 2'-F, 2'-OMe as printed GMenGMeAFAFnGCGnnGFAFAFnnAFnGnCFCFCFnnCAGMenCAnCFAMCE, 3' idT, internalization in HepG2 and Hep3B, protein on the cell …): active
functional effect of the aptamer ([5]; 2'-OMe as printed GMenGMeAFAFnGCGnnGFAFAFnnAFnGnCFCFCFnnCAGMenCAnCFAMCE, 3' idT): not active

GTGAATGCGTTGAATTATTCCCTTCAGTCATCAC [Combi 5]
binding result ([2]; 2'-F, 2'-OMe, W = C3 linker, Y = Nap-dU as printed GMenGMeAFAFnGCGnnGFAFAMennAMenWYCFCFCFnnCAGMenCAnCFAMeCF, 3' idT [C3 linker (W) between 18 and 19 left out, BzdU (T): 2,6,10,11,15,16,18,23,24,28,31, Nap-dU (T): 19, 2'-OMe: 1,3,14,17,27,33, 2'-F: 4,5,12,13,20,21,22,32,34, 3' idT left out], HepG2, binding most similar to 12-12, highest Hep3B internalization of combi 1-5, label: 5' Cy5, letters built from the parent sequence and the stated change, variant of 12-12): binds

GTGAATGCGTTGAATTATTCCCTTCAGTCATCAC [Combi 8]
functional effect of the aptamer ([3]; 2'-F, 2'-OMe, W = C3 linker as printed GMenGMeAFAFnGCGnnGFAFAMennAMenWnCFCFCFnnCAGMenCAnCFAMeCF, 3' idT [C3 linker (W) between 18 and 19 left out, BzdU (T): 2,6,10,11,15,16,18,19,23,24,28,31, 2'-OMe: 1,3,14,17,27,33, 2'-F: 4,5,12,13,20,21,22,32,34, 3' idT left out], highest internalization in HepG2 and Hep3B, protein on the cell surface, letters built from the parent sequence and the stated change): active
functional effect of the aptamer ([5]; 2'-OMe, W = C3 linker as printed GMenGMeAFAFnGCGnnGFAFAMennAMenWnCFCFCFnnCAGMenCAnCFAMeCF, 3' idT [C3 linker (W) between 18 and 19 left out, BzdU (T): 2,6,10,11,15,16,18,19,23,24,28,31, 2'-OMe: 1,3,14,17,27,33, 2'-F: 4,5,12,13,20,21,22,32,34, 3' idT left out], letters built from the parent sequence and the stated change): not active

— patent US20230127087
